PMC8666665
These are yes or no findings as the source states them, for the method shown. For part of these data: Binding seen in cells or lysates may run through a third protein. Some results given as binding are weak or reduced against the parent protein; the word gives no strength. For part of these data: Tags and fused reporters may be left off the sequences shown.

Sequences of proteins named here, by UniProt entry; tags and fusion partners are left off. A change or cut given only in a name is not applied to a line headed by its entry. Residues count along the entry.
UniProt Q9Y572: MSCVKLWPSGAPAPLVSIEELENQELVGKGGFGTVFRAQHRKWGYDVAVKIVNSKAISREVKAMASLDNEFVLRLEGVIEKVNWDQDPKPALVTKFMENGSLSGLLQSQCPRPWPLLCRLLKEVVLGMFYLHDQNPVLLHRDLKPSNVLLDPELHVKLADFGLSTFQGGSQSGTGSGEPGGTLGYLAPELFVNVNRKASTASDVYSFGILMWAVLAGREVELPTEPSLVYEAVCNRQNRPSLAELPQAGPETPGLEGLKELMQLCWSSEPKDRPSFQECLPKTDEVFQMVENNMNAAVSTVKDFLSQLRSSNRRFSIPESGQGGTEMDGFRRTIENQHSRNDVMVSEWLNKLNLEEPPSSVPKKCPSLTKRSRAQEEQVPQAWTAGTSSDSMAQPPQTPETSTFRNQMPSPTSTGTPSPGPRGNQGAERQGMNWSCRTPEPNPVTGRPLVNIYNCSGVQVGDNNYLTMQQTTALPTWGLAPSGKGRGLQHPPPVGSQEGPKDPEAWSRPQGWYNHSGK
UniProt P19838, residues 1-433: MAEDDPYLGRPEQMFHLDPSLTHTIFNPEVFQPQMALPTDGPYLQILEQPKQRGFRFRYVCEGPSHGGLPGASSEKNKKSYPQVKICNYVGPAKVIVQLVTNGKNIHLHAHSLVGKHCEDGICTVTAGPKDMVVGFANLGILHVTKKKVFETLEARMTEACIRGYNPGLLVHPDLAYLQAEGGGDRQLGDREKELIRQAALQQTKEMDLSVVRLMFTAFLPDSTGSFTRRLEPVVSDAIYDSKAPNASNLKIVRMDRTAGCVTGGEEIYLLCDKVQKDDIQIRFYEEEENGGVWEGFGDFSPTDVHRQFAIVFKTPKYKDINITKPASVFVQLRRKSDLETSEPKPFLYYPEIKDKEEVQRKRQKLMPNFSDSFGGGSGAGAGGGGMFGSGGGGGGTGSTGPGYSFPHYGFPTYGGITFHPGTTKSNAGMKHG
UniProt Q04206: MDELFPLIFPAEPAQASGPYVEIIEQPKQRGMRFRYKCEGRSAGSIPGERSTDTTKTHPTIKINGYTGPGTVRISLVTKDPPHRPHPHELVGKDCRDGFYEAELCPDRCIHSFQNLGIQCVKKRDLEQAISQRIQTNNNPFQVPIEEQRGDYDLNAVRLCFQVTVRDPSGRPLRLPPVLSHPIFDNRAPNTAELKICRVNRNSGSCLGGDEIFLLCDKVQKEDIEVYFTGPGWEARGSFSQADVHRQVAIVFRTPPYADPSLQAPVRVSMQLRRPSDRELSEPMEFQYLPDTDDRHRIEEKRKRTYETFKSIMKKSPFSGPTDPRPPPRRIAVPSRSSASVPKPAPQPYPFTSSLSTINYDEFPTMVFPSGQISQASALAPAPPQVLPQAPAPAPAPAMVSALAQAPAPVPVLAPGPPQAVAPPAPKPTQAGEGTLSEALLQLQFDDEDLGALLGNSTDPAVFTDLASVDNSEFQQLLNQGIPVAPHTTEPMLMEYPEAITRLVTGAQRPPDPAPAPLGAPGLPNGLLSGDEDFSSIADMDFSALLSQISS
UniProt Q13546: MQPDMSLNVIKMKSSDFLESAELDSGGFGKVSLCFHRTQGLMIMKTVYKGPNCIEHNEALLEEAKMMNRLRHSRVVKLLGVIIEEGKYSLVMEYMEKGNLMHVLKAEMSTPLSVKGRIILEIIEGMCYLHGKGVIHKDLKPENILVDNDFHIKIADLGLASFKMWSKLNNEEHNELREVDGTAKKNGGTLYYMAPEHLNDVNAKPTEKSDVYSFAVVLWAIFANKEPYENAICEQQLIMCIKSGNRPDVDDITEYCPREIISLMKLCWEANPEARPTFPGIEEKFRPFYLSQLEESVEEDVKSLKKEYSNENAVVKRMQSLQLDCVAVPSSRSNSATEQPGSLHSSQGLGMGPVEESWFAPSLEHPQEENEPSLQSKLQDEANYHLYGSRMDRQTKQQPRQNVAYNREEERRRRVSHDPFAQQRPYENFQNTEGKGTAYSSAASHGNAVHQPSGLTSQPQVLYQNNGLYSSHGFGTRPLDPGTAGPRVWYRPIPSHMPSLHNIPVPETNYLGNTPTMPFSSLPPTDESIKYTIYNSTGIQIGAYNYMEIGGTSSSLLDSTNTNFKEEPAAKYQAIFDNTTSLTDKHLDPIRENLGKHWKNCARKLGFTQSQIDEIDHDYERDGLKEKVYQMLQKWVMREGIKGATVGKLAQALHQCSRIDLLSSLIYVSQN

What was measured:
[1] = target: T1, GST-KPC2 (UniProt Q9BSL1); assay: pull-down; cell-free: 100 ng of each purified GST protein mixed 1 h at room temperature in IP buffer (25 mM Hepes, 150 mM NaCl, 2 mM EDTA, 1% Triton X100), anti-V5-agarose beads 2 h at 4°C; immunoblotting; both purified
T1 sequence: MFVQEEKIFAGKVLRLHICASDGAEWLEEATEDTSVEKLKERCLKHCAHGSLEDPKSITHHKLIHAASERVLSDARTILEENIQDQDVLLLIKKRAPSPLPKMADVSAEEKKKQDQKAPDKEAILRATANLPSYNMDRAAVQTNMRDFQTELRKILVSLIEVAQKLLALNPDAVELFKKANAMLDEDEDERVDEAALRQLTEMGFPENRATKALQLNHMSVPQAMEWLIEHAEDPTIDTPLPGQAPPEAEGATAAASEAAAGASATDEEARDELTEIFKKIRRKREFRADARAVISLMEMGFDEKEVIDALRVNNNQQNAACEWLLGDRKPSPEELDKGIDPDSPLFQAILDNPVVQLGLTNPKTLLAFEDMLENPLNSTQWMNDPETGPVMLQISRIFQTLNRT

[2] = target: RIP3 (positive control of the PCA) (UniProt Q9Y572); assay: split reporter; protein-fragment complementation assay: Renilla luciferase fragments F1 and F2 fused to the two proteins, co-transfected HEK/293T cells, coelenterazine-h 5 μM
[3] = target: p50 (NF-κB1), endogenous in nuclei of MDA-MB-231 (human (endogenous in MDA-MB-231)) (UniProt P19838); assay: co-IP; p50 immunoprecipitated (p50 antibody, Protein A magnetic beads) from isolated nuclei of parental, CD95 k.o., KPC2 k.o. and CD95/KPC2 double k.o. MDA-MB-231 cells; p65 by immunoblotting
[4] = target: T2, Flag-KPC2 (UniProt Q9BSL1); assay: co-IP; Flag immunoprecipitation (antibody-conjugated beads, overnight, IP buffer) from co-transfected CD95 k.o. HEK/293T cells, KPC2 co-transfected; immunoblotting
T2 sequence: T1 sequence

[5] = target: T3, Flag-KPC1 (UniProt Q5XPI4); assay: as above
T3 sequence: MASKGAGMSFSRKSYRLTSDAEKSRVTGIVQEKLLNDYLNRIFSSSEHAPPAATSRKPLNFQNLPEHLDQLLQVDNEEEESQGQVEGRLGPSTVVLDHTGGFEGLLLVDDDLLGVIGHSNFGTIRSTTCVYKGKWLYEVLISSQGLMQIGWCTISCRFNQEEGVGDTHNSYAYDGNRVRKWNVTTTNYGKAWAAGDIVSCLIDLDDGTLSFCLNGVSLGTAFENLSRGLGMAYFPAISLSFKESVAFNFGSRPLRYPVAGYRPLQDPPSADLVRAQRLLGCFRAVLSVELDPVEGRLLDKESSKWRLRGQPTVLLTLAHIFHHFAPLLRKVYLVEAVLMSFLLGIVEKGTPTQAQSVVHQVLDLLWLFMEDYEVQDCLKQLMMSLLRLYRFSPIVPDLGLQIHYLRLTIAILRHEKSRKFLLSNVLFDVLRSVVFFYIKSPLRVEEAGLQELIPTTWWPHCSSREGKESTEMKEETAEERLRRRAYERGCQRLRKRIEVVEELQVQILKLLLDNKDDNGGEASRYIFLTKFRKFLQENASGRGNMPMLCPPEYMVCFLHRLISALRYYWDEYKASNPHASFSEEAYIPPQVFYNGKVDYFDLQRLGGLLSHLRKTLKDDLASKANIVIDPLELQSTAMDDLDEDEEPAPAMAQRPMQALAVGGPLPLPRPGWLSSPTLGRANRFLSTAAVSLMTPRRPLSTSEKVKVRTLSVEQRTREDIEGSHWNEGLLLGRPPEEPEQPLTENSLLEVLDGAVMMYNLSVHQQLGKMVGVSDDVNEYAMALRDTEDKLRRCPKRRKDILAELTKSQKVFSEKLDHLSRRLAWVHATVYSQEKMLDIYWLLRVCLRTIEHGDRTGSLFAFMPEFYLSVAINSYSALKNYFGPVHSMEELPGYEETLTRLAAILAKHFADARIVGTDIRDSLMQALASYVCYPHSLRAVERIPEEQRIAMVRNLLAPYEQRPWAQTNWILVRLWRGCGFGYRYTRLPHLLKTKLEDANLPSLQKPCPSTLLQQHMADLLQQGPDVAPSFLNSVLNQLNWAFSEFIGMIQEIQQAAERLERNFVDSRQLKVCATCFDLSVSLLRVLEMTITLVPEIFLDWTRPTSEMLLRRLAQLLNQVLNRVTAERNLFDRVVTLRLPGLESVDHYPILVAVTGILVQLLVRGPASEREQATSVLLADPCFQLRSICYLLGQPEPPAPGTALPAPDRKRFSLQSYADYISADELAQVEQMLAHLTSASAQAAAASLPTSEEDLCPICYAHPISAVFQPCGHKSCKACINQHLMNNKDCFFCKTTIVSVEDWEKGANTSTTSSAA

[6] = target: Flag-p65 (UniProt Q04206); assay: as above

“GST-p65 (1-307) (from UniProt Q04206 1-307) (domain or fragment)” was tested, and the binding [1] was “binds”.

For “RIP1 (positive control of the PCA) (from UniProt Q13546 1-671)”, the binding [2] was “binds”.

For “RelA (p65), endogenous in MDA-MB-231 (from UniProt Q04206 1-551)”, the binding [3] was “binds”.

In the case of “p65-Renilla luciferase (domain F1) (from UniProt Q04206 1-551)”, the binding [4] is reported as “binds”.

B1: V5-KPC2 (protein, UniProt Q9BSL1 1-405)
chain: T1 sequence
With B1 the binding [5] was “binds” and the binding [6] was “binds”.
